Laboratory results published in the supplement of paper PMC12764529.
± gives the half width of the 95% confidence interval. For many entries, trypsin and chymotrypsin gave values far apart.

Legend:
[1] = folding stability dG unfold from chymotrypsin proteolysis; higher = more stable
Procedure, shortened: (§1)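 Only designs with AlphaFold2 dimer inter-PAE above 15 were retained; each was a mini-protein under 80 residues with no cysteine, in a PA-tagged cDNA display construct. After digestion with trypsin and chymotrypsin and sequencing, K50 was inferred by Bayesian fitting of counts, and unfolding free energy was derived per protease or combined against a sequence-predicted unfolded-state K50 and a shared folded-state K50.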

[2] = folding stability dG unfold from trypsin proteolysis; higher = more stable
Protocol: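 Folding stability of de novo designed mini-proteins (<80 aa, no Cys; designed by TrROS, TrMRF, ProteinMPNN and the joint model) was measured by cDNA display proteolysis with trypsin and chymotrypsin. Each protease was used at 11 concentrations in a threefold dilution series plus a no-protease condition. K50 was inferred by Bayesian fitting of sequencing counts, and dG unfold was derived against a sequence-predicted unfolded-state K50 (Tsuboyama et al. method). Sequences shown include variable-length N-terminal GS-type padding (SAGGSAGG...) inside a display construct carrying a PA tag. Rows were kept only if the AF2 dimer inter-PAE was >15, to exclude likely homo-oligomers.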

[3] = folding stability dG unfold (combined trypsin and chymotrypsin); higher = more stable
Procedure, shortened: as §1

SAGGSAGGSAPELTLTLTLTLTVTVTPTTRPAPAAKPKTTRTLTLTVTLTLNPDGELTATVTLSAGGSAGGS [r12_438_TrROS_Hall]
folding stability dG unfold [1]: 24.1 ± 0.544 kJ/mol
folding stability dG unfold [2]: 14.6 ± 0.669 kJ/mol
folding stability dG unfold [3]: 23.3 ± 0.628 kJ/mol

SAGGSAGGVTINFPDGVTIMVDPGTGKIYIMNPNGYIFKFTIERKPNEWKLKIEPIKPIPPDDFSAGGSAGG [r6_324_TrROS]
folding stability dG unfold [1]: 15.5 ± 0.381 kJ/mol
folding stability dG unfold [2]: 10.7 ± 0.356 kJ/mol
folding stability dG unfold [3]: 13.2 ± 0.795 kJ/mol

SAGGPNVPIRIRVTIERQDPDGEPKDFEFPIEYPMPPDDPEQAKEQIEELAESIAEKHGYKVEIEIEPSAGG [r13_853_TrROS]
folding stability dG unfold [1]: -1.88 ± 1.21 kJ/mol
folding stability dG unfold [2]: -2.78 ± 0.753 kJ/mol
folding stability dG unfold [3]: -2.62 ± 2.3 kJ/mol

SAGGMVTLTLPSPDGSTLTVTVEKDPNADYYRATVTTHHPDGTVTVTESVIHPDGTTTTLATTTLPASAGGS [r16_213_JUSTAS]
folding stability dG unfold [1]: 9.3 ± 0.167 kJ/mol
folding stability dG unfold [2]: 8.81 ± 0.335 kJ/mol
folding stability dG unfold [3]: 9.35 ± 0.502 kJ/mol

SAGGSAGGSAGNIEIFFDPDGTLRIVFRTPDWVVVIEYKIDPGGNEIEPRDVEVVPPGAISAGGSAGGSAGG [r11_844_TrROS]
folding stability dG unfold [1]: 16.9 ± 0.418 kJ/mol
folding stability dG unfold [2]: 6.94 ± 0.159 kJ/mol
folding stability dG unfold [3]: 14.7 ± 1 kJ/mol

SAGGSAGGSAGKFKPGEEIVIVAKTKEEADKLKKLFPNAKIKVIPVEKKVYVDKKTKKAKSAGGSAGGSAGG [r17_126_TrROS_Hall]
folding stability dG unfold [2]: 4.69 ± 0.753 kJ/mol
folding stability dG unfold [3]: -0.272 ± 2.47 kJ/mol

SMTITLELTNKDGSKIRIEITVTYDKETKEVYVKVKIEVTDKNGKKHEKTIIIKAPSLDEALKAAKELLSSA [r9_337_TrROS_Hall]
folding stability dG unfold [2]: 14.2 ± 0.92 kJ/mol
folding stability dG unfold [3]: > 25.1 kJ/mol

SAGGMSPELEELRQKLEEEAKAKAEAEAEEVAKKNPNTPVTITYEEEFELPNGEPVKLKVEINIPLLSAGGS [r16_574_JUSTAS]
folding stability dG unfold [2]: 4.42 ± 0.176 kJ/mol
folding stability dG unfold [3]: 1.88 ± 0.46 kJ/mol

SAGGSAGGSLIERLADELQEQGFEIEVKRVEIEPDPNGHLSIRFEVRIEPPPPPPSPEERDKNSAGGSAGGS [r12_120_TrROS]
folding stability dG unfold [2]: 8.36 ± 0.669 kJ/mol
folding stability dG unfold [3]: 4.36 ± 1.26 kJ/mol

SAGGSAGGSAGGRIWIMLPGMSKEQIAKELSDGYDIKNVEIEPIPDGMVMIEIEVKPKPSAGGSAGGSAGGS [r10_1219_TrROS]
folding stability dG unfold [2]: 4.89 ± 0.247 kJ/mol
folding stability dG unfold [3]: 2.42 ± 0.669 kJ/mol

SAGGKEKEITVFKIEIKIEMKIKMKLEIDKDGNIKMEIEMEIKIEIKIEEKKIKVELDKDGKIVKIEPSAGG [r13_148_TrROS_Hall]
folding stability dG unfold [2]: 10.7 ± 0.92 kJ/mol
folding stability dG unfold [3]: > 25.1 kJ/mol

SGYMIKIKFEITNPNNGMKMEFDFWATLEEAKKLAKELAKRFPNMNVRVKIVEIEVMPIPPPKKVDPDDKSA [r9_14_TrROS]
folding stability dG unfold [1]: 20.7 ± 1.76 kJ/mol
folding stability dG unfold [2]: 9.41 ± 0.586 kJ/mol

SEKVEKVTVTIEIELPNGKKIKIEVEVVRNENGELFVRIKIEVTLPNGEKKTYEITLSLEELKKLLEELLSA [r9_189_TrROS_Hall]
folding stability dG unfold [2]: 15.2 ± 1.09 kJ/mol
folding stability dG unfold [3]: > 25.1 kJ/mol

SAGEIAKEIAEKLGIKNAKVKEVKIEKNKDGKIVEIEIEVELEDGRKLKITIRIEKGKVEIKIEEVEPSAGG [r19_392_TrROS_Hall]
folding stability dG unfold [2]: 15.5 ± 0.711 kJ/mol
folding stability dG unfold [3]: > 25.1 kJ/mol

SAGGSRQVIEWEFKDPKNGKPFEISIEYDEENGVPMVEIRDRNGEPNAVVPVPPDNADEALEKFGISAGGSA [r2_115_TrROS]
folding stability dG unfold [2]: -3.78 ± 1.92 kJ/mol
folding stability dG unfold [3]: < -4.18 kJ/mol

SAGMKIEEENGQLKLTLTVTDENGNTYKVTVTVTPDEITVKIEPLPPVPEIEAESEEEAEAAKKKLEEASAG [r5_272_TrROS_Hall]
folding stability dG unfold [2]: 7.88 ± 1.55 kJ/mol
folding stability dG unfold [3]: > 25.1 kJ/mol

MPEEWKVIAEIKIEVEVDGKTYEITVEVYYNKETGKVVVKVEVYDKETGKKSEELKKLAEELVKKLLEALKS [r1_229_TrROS_Hall]
folding stability dG unfold [2]: 12.1 ± 1.3 kJ/mol
folding stability dG unfold [3]: > 25.1 kJ/mol

SAGGSAGGSMVTTSIDPSGTAKITVTDGGGVPVSTATIPVDPNAILTYDPNNSSISTFSPVSSSAGGSAGGS [r12_1002_JUSTAS]
folding stability dG unfold [2]: 2.17 ± 0.134 kJ/mol
folding stability dG unfold [3]: -1.85 ± 1 kJ/mol

SAGGSAGGSAGREFAEKLGIDEVEDIHPPPGRYPISIRNPNKGKPREINMPESEAEDFIKSAGGSAGGSAGG [r11_630_TrROS]
folding stability dG unfold [2]: 13.1 ± 2.43 kJ/mol
folding stability dG unfold [3]: > 25.1 kJ/mol

SAGGSAGGSAGGGVAVLKIDLETGEITVEPAHPDTEVPVDFDGDSVIAVVRGDKIEIRPSAGGSAGGSAGGS [r10_817_TrMRF]
folding stability dG unfold [2]: 5.34 ± 0.372 kJ/mol
folding stability dG unfold [3]: 2.8 ± 0.502 kJ/mol

SAGGSAGGSAGGSMENPEVPIETVEIEIPVYEPGGKPIGPVKVTIPSSVSLEEVEKMVLSSAGGSAGGSAGG [r7_110_JUSTAS]
folding stability dG unfold [2]: 4.48 ± 0.146 kJ/mol
folding stability dG unfold [3]: 0.766 ± 0.301 kJ/mol

KTITLTAEEVLKKIEELIKKGYEIVKITITNKKGEKIEFETKKDLLDALKKKFENMPKEDLTVKVEVKKKPS [r1_325_TrROS_Hall]
folding stability dG unfold [2]: 12.8 ± 1.26 kJ/mol
folding stability dG unfold [3]: > 25.1 kJ/mol

SAGGSAGGSATVDEVIKEAREEAREEHPNYPPGQTHTIKIRDPDNGEKVKIRFTNDGKIEISAGGSAGGSAG [r3_441_TrROS]
folding stability dG unfold [2]: -0.136 ± 0.238 kJ/mol
folding stability dG unfold [3]: < -4.18 kJ/mol

SDVNIKPEKVDPNGIFTVEIPVDNNNVDKLREIINEIFPNFEPTEVKPNPESGYHEIIMRVPDGKAFEFSSA [r9_1164_TrROS]
folding stability dG unfold [2]: -0.588 ± 0.167 kJ/mol
folding stability dG unfold [3]: -2.3 ± 0.586 kJ/mol
